{"source": "PubChem BioAssay AID248", "about": "(DTP/NCI, 2004)", "test_system": "L1210 leukemia ip in BDF1 mice, survival T/C", "assay": "NCI In Vivo Anticancer Drug Screen. Data for tumor model L1210 Leukemia (intraperitoneal) in B6D2F1 (BDF1) mice", "conditions": "T/C endpoint: mean survival time, higher T/C = longer survival", "note": "The list does not hold the whole screen: it is rich in T/C values a quarter to a half above the control, in often repeated tests (any T/C) and in doses without a T/C. Further doses and runs are listed elsewhere. T/C is the treated group as % of the vehicle group. Some doses have a count of surviving animals in place of a T/C: the source holds a T/C of zero for them, seemingly a mark for toxic or unscored doses. Some survivor counts are full or nearly so, which does not show that the dose was tolerated: the source hardly ever lists a survival T/C far under the control, and the zero likely stands for such cases as well. Survivors were counted at the toxicity check, usually on the fifth day, unless a day is given; later deaths do not show. Schedules are NCI's codes, taken here to give the interval after Q, in days (D) or hours (H), and the number of doses after X. Some schedules carry Z or #; the key to these is not given. Some structures stand for samples that the source files as different forms (salt, stereo form or complex); doses refer to the form tested. For survival time, the PubChem record calls one and a half times the control and up active, and a quarter to a half above the control has no call in these data; cut-offs in other NCI protocols can differ. Some T/C values carry the count of animals alive at the toxicity check (mostly the fifth day); without a count, all were alive then. Some entries were tested several times; the values are given in rising order. Brackets with × count equal records among those shown."}
{"compound": "O=C(Nc1ccc(C2=NCCN2)cc1)c1ccc(C(=O)Nc2ccc(C3=NCCN3)cc2)c(Cl)c1", "values": [{"measurement": "T/C", "setting": "dose: 2.0 mg/kg/injection, schedule: Q01DX010 (ip), vehicle: other", "value": "134 % of control"}, {"measurement": "T/C", "setting": "dose: 2.0 mg/kg/injection, schedule: Q01DX010 (ip), vehicle: saline", "value": "103, 112, 117, 124 % of control"}, {"measurement": "T/C", "setting": "dose: 4.0 mg/kg/injection, schedule: Q01DX010 (ip), vehicle: other", "value": "143 % of control"}, {"measurement": "T/C", "setting": "dose: 4.0 mg/kg/injection, schedule: Q01DX010 (ip), vehicle: saline", "value": "120, 121, 122, 123 % of control"}, {"measurement": "T/C", "setting": "dose: 4.0 mg/kg/injection, schedule: Q01DX Z (ip), vehicle: saline", "value": "125 % of control"}, {"measurement": "T/C", "setting": "dose: 6.25 mg/kg/injection, schedule: Q01DX009 (ip), vehicle: saline with Tween-80", "value": "133 % of control"}, {"measurement": "T/C", "setting": "dose: 6.3 mg/kg/injection, schedule: Q01DX Z (ip), vehicle: methylcellulose (MC)", "value": "139 and 145 % of control [5 of 6 alive]"}, {"measurement": "T/C", "setting": "dose: 6.7 mg/kg/injection, schedule: Q01DX010 (ip), vehicle: carboxymethylcellulose (CMC)", "value": "138 % of control"}, {"measurement": "T/C", "setting": "dose: 6.7 mg/kg/injection, schedule: Q01DX015 (ip), vehicle: carboxymethylcellulose (CMC)", "value": "133 % of control"}, {"measurement": "T/C", "setting": "dose: 7.0 mg/kg/injection, schedule: Q01DX009 (ip), vehicle: Klucel (hydroxypropylcellulose) (HPC)", "value": "123, 125, 129, 137 % of control"}, {"measurement": "T/C", "setting": "dose: 8.0 mg/kg/injection, schedule: Q01DX010 (ip), vehicle: saline", "value": "138, 143, 150, 155 % of control"}, {"measurement": "T/C", "setting": "dose: 8.0 mg/kg/injection, schedule: Q01DX Z (ip), vehicle: saline", "value": "132 % of control"}, {"measurement": "T/C", "setting": "dose: 8.0 mg/kg/injection, schedule: Q01DX Z (sc), vehicle: carboxymethylcellulose (CMC)", "value": "146 % of control"}, {"measurement": "T/C", "setting": "dose: 10.0 mg/kg/injection, schedule: Q01DX010 (ip), vehicle: carboxymethylcellulose (CMC)", "value": "144 % of control"}, {"measurement": "T/C", "setting": "dose: 10.0 mg/kg/injection, schedule: Q01DX010 (ip), vehicle: other", "value": "131 % of control"}, {"measurement": "T/C", "setting": "dose: 10.0 mg/kg/injection, schedule: Q01DX015 (ip), vehicle: carboxymethylcellulose (CMC)", "value": "137 % of control"}, {"measurement": "T/C", "setting": "dose: 10.0 mg/kg/injection, schedule: Q04DX002 (ip), vehicle: Klucel (hydroxypropylcellulose) (HPC)", "value": "100, 103, 105, 106 % of control"}, {"measurement": "T/C", "setting": "dose: 11.3 mg/kg/injection, schedule: Q02DX010 (ip), vehicle: carboxymethylcellulose (CMC)", "value": "134 % of control"}, {"measurement": "T/C", "setting": "dose: 11.3 mg/kg/injection, schedule: Q02DX010 (ip), vehicle: other", "value": "142 % of control"}, {"measurement": "T/C", "setting": "dose: 12.0 mg/kg/injection, schedule: Q03DX Z (ip), vehicle: saline", "value": "131 and 132 % of control"}, {"measurement": "T/C", "setting": "dose: 12.5 mg/kg/injection, schedule: Q01DX010 (sc), vehicle: olive oil, sesame oil, peanut oil", "value": "128 and 139 % of control"}, {"measurement": "T/C", "setting": "dose: 13.0 mg/kg/injection, schedule: Q02DX010 (ip), vehicle: carboxymethylcellulose (CMC)", "value": "149, 156, 164, 186, 193, 197 % of control"}, {"measurement": "T/C", "setting": "dose: 14.0 mg/kg/injection, schedule: Q01DX009 (ip), vehicle: Klucel (hydroxypropylcellulose) (HPC)", "value": "125, 134, 147, 151 % of control"}, {"measurement": "T/C", "setting": "dose: 16.0 mg/kg/injection, schedule: Q01DX010 (ip), vehicle: other", "value": "133 and 137 % of control"}, {"measurement": "T/C", "setting": "dose: 16.0 mg/kg/injection, schedule: Q01DX010 (ip), vehicle: saline", "value": "149, 163, 174, 177 % of control"}, {"measurement": "T/C", "setting": "dose: 17.4 mg/kg/injection, schedule: Q02DX008 (ip), vehicle: carboxymethylcellulose (CMC)", "value": "134 % of control"}, {"measurement": "T/C", "setting": "dose: 17.4 mg/kg/injection, schedule: Q02DX010 (ip), vehicle: carboxymethylcellulose (CMC)", "value": "146 % of control"}, {"measurement": "T/C", "setting": "dose: 18.0 mg/kg/injection, schedule: Q02DX010 (ip), vehicle: carboxymethylcellulose (CMC)", "value": "144 % of control"}, {"measurement": "T/C", "setting": "dose: 19.35 mg/kg/injection, schedule: Q02DX010 (ip), vehicle: carboxymethylcellulose (CMC)", "value": "144, 175, 192, 197, 237 % of control (2×)"}, {"measurement": "T/C", "setting": "dose: 20.0 mg/kg/injection, schedule: Q02DX010 (ip), vehicle: carboxymethylcellulose (CMC)", "value": "205, 213, 215, 231, 233, 257 % of control"}, {"measurement": "T/C", "setting": "dose: 20.0 mg/kg/injection, schedule: Q04DX002 (ip), vehicle: Klucel (hydroxypropylcellulose) (HPC)", "value": "107, 110 (2×), 115 % of control"}, {"measurement": "T/C", "setting": "dose: 24.0 mg/kg/injection, schedule: Q03DX Z (ip), vehicle: saline", "value": "139 % of control"}, {"measurement": "T/C", "setting": "dose: 25.0 mg/kg/injection, schedule: Q02DX004 (im), vehicle: olive oil, sesame oil, peanut oil", "value": "132 and 142 % of control"}, {"measurement": "T/C", "setting": "dose: 26.0 mg/kg/injection, schedule: Q02DX008 (ip), vehicle: carboxymethylcellulose (CMC)", "value": "147 % of control"}, {"measurement": "T/C", "setting": "dose: 28.0 mg/kg/injection, schedule: Q01DX009 (ip), vehicle: Klucel (hydroxypropylcellulose) (HPC)", "value": "166, 188, 205, 214 % of control"}, {"measurement": "T/C", "setting": "dose: 28.0 mg/kg/injection, schedule: Q07DX Z (ip), vehicle: saline", "value": "131 % of control"}, {"measurement": "T/C", "setting": "dose: 30.0 mg/kg/injection, schedule: Q01DX Z (ip), vehicle: methylcellulose (MC)", "value": "128 % of control"}, {"measurement": "T/C", "setting": "dose: 30.0 mg/kg/injection, schedule: Q02DX010 (ip), vehicle: carboxymethylcellulose (CMC)", "value": "221, 255, 257, 268, 277, 295 % of control"}, {"measurement": "T/C", "setting": "dose: 30.15 mg/kg/injection, schedule: Q02DX010 (ip), vehicle: carboxymethylcellulose (CMC)", "value": "219 (2×), 247, 274, 291, 313 % of control"}, {"measurement": "survivor count", "setting": "dose: 32.0 mg/kg/injection, schedule: Q01DX010 (ip), vehicle: other", "value": "0 of 8"}, {"measurement": "T/C", "setting": "dose: 32.0 mg/kg/injection, schedule: Q01DX010 (ip), vehicle: saline", "value": "200, 222, 243, 249 % of control"}, {"measurement": "survivor count", "setting": "dose: 32.0 mg/kg/injection, schedule: Q#A X Z (ip), vehicle: saline", "value": "6 of 6"}, {"measurement": "T/C", "setting": "dose: 35.0 mg/kg/injection, schedule: Q## X032 (ip), vehicle: carboxymethylcellulose (CMC)", "value": "133 and 142 % of control"}, {"measurement": "T/C", "setting": "dose: 35.2 mg/kg/injection, schedule: Q## X032 (ip), vehicle: carboxymethylcellulose (CMC)", "value": "143 % of control"}, {"measurement": "T/C", "setting": "dose: 40.0 mg/kg/injection, schedule: Q04DX002 (ip), vehicle: Klucel (hydroxypropylcellulose) (HPC)", "value": "111, 116 (2×), 125 % of control"}, {"measurement": "T/C", "setting": "dose: 42.0 mg/kg/injection, schedule: Q01DX001 (ip), vehicle: carboxymethylcellulose (CMC)", "value": "125 % of control"}, {"measurement": "T/C", "setting": "dose: 42.0 mg/kg/injection, schedule: Q01DX001 (ip), vehicle: other", "value": "126 % of control"}, {"measurement": "T/C", "setting": "dose: 44.0 mg/kg/injection, schedule: Q01DX001 (ip), vehicle: carboxymethylcellulose (CMC)", "value": "130 % of control"}, {"measurement": "T/C", "setting": "dose: 45.0 mg/kg/injection, schedule: Q02DX010 (ip), vehicle: carboxymethylcellulose (CMC)", "value": "153 (2×), 154, 180, 182, 196, 202, 203, 206, 210, 220, 243 % of control"}, {"measurement": "T/C", "setting": "dose: 45.0 mg/kg/injection, schedule: Q## X004 (ip), vehicle: carboxymethylcellulose (CMC)", "value": "127 and 138 % of control"}, {"measurement": "T/C", "setting": "dose: 48.0 mg/kg/injection, schedule: Q03DX Z (ip), vehicle: saline", "value": "129 % of control"}, {"measurement": "T/C", "setting": "dose: 50.0 mg/kg/injection, schedule: Q01DX001 (im), vehicle: steroid suspending solution", "value": "132 % of control"}]}
